± gives the standard deviation of the averaged measurements. This is a selection; strong and weak results do not stand in their true shares.
Compound: Nc1ncnc2c1ncn2[C@@H]1O[C@H](COP(=O)(O)OP(=O)(O)OP(=O)(O)O)[C@@H](O)[C@H]1O [adenosine triphosphate]
Test: NP40-soluble protein abundance relative to vehicle (solubility fold change) (ratio); higher = more soluble protein in presence of ATP
In short: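 Each value is a fold change relative to the detergent-processed vehicle, calculated per replicate from vsn-normalised intensities. Jurkat crude lysate received eight concentrations (0.1 to 10 mM) for 10 min at room temperature and 3 min at 37 °C, then was solubilised in 0.8% NP40 with benzonase (60 min, 4 °C). The ultracentrifuged supernatant was TMT-labelled and run by LC-MS/MS in three independent experiments.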

Amino acid sequences for entries named in this document (tags omitted). A change or cut given only in a name is not applied to a line headed by its entry.
UniProt Q9UPN9: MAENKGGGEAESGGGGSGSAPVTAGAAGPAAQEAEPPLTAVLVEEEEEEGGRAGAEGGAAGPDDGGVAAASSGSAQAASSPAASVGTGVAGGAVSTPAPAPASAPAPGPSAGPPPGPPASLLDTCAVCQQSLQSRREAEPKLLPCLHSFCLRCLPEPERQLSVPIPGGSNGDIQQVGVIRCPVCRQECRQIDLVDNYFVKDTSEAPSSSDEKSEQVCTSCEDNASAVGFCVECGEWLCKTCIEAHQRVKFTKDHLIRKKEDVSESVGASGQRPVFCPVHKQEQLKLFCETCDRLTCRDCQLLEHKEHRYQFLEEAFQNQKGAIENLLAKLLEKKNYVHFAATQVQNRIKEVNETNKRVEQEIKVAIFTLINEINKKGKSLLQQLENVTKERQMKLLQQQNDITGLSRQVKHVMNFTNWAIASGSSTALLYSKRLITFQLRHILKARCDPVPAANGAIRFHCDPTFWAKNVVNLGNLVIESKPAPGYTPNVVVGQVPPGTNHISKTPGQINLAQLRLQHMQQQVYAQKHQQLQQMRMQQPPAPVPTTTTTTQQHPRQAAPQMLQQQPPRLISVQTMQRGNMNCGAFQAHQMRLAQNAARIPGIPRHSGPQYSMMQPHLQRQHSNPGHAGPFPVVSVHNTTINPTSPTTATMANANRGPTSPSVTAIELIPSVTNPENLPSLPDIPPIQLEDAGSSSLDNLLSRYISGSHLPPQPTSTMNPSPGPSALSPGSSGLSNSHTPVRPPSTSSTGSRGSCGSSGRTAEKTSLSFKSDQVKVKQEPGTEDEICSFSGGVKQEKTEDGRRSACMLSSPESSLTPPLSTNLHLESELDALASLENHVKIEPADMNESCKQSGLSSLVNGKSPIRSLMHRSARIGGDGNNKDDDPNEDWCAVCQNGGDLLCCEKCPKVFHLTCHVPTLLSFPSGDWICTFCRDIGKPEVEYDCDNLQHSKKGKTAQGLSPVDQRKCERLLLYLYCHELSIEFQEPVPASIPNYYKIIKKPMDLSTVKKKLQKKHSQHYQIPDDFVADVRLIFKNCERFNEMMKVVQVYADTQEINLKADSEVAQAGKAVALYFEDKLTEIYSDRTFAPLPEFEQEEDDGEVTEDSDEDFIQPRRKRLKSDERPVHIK
UniProt Q9UBC2: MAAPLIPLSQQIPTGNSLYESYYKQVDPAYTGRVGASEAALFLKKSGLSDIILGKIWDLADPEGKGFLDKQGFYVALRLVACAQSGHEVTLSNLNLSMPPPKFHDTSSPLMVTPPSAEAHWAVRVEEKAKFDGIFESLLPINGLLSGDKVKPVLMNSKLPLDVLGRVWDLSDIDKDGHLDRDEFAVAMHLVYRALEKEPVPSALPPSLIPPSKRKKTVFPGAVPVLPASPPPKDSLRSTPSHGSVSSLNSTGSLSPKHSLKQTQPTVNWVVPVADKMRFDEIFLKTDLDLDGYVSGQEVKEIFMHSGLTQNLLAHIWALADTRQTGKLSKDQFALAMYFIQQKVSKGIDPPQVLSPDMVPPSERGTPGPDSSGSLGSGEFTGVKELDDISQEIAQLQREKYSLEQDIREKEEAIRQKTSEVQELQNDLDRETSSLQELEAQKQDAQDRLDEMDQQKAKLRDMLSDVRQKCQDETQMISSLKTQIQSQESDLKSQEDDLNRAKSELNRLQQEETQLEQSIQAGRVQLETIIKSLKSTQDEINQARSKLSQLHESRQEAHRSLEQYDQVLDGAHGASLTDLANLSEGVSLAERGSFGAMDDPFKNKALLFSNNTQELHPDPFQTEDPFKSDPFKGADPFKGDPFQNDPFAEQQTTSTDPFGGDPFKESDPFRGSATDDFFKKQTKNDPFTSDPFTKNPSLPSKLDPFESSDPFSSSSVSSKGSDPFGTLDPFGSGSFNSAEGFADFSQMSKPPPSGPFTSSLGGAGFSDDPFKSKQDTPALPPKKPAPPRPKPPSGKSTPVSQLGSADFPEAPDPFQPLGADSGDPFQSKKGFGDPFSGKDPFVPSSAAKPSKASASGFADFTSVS
UniProt Q8IWX8: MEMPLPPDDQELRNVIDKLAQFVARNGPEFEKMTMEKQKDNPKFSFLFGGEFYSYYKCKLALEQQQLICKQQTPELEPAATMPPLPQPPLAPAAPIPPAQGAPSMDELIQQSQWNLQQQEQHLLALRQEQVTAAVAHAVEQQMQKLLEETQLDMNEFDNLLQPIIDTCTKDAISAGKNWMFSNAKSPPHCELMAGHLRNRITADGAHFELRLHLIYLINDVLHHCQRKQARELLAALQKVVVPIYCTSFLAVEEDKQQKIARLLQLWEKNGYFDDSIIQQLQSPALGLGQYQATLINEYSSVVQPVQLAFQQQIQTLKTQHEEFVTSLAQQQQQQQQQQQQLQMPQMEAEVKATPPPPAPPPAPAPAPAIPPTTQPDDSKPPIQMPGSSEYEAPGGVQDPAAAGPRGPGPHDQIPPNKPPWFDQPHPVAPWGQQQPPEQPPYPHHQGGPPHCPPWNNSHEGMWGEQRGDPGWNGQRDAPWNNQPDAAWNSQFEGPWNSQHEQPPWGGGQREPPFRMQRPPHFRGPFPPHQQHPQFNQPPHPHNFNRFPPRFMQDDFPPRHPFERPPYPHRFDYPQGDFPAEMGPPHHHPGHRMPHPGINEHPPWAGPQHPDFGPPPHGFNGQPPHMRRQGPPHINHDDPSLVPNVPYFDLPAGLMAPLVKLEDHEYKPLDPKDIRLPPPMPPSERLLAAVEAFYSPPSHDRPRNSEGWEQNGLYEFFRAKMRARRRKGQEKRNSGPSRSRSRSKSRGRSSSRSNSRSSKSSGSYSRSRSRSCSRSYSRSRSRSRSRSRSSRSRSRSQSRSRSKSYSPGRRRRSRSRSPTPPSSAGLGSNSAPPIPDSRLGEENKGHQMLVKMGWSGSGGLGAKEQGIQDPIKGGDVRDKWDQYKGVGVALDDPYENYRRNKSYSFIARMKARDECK
UniProt O00273: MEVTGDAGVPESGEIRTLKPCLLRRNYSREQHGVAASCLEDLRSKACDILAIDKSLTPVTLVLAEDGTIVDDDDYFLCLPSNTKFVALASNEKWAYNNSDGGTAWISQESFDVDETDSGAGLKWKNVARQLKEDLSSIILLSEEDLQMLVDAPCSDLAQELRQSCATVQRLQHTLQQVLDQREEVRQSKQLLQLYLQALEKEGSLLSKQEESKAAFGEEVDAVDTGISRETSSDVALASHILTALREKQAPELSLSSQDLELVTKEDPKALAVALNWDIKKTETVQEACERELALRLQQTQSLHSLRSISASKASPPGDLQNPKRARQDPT
UniProt L0R6Q1: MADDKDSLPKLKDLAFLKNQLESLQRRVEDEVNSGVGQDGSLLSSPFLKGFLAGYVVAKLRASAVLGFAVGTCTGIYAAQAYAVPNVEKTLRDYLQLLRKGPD
UniProt Q13620, whole entry: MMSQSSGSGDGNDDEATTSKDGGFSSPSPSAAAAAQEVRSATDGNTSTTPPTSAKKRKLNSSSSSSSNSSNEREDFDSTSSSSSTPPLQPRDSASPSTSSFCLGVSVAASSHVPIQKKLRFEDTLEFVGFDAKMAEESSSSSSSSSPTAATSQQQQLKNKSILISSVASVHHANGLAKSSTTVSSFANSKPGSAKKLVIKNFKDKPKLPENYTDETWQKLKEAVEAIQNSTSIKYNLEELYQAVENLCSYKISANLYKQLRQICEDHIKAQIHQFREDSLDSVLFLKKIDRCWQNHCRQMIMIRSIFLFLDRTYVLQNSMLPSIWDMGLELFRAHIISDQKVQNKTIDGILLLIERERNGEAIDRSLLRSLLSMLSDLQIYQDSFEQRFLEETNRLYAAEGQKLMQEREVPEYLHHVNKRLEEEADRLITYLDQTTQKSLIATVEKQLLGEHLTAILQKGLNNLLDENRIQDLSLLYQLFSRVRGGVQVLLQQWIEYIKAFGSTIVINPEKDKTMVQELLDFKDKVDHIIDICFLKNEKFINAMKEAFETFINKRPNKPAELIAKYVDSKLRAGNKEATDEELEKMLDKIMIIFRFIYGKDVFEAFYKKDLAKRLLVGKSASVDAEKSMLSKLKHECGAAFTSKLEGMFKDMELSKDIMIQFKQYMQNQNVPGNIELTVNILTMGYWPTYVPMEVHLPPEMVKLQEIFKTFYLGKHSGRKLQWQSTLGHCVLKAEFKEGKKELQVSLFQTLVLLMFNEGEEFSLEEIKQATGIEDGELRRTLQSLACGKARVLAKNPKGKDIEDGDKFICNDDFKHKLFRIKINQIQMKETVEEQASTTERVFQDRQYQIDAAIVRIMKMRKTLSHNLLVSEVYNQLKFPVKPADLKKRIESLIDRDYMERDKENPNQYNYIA
UniProt Q96GQ5: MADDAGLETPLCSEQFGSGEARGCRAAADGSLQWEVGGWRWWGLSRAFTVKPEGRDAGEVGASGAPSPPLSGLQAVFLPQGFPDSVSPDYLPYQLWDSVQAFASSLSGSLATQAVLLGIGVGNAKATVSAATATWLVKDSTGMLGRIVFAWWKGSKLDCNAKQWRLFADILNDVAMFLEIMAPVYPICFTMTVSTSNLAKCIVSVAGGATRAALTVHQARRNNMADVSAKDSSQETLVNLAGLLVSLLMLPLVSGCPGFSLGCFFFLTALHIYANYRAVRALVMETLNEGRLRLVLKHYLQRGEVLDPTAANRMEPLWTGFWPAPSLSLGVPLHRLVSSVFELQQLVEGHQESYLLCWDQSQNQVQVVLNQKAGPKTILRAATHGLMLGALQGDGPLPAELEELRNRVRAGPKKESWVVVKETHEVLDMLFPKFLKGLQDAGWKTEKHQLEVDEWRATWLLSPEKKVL
UniProt P20674, whole entry: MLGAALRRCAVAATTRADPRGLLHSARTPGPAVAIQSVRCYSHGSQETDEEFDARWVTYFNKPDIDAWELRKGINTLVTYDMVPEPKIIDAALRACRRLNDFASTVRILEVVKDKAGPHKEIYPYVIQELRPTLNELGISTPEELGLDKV
UniProt Q6P2D0: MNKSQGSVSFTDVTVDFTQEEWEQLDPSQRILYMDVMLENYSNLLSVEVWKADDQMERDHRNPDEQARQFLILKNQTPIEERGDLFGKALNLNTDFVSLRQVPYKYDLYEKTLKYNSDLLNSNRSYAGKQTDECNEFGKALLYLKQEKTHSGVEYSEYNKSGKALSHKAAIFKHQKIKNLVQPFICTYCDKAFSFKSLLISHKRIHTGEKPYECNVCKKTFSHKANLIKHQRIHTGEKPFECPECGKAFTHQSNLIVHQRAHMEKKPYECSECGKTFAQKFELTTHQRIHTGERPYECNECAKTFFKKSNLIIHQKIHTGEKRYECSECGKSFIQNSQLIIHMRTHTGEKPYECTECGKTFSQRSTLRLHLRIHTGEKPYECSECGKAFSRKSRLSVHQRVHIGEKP
UniProt P60510: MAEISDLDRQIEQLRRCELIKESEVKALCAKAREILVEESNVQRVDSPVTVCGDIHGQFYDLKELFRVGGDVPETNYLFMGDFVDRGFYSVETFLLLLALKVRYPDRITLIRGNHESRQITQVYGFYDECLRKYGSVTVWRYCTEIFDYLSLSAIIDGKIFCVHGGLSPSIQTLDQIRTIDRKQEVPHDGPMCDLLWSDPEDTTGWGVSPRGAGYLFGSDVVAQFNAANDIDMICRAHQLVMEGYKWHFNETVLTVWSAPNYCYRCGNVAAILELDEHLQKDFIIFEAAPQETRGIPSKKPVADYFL
UniProt Q9Y2V0: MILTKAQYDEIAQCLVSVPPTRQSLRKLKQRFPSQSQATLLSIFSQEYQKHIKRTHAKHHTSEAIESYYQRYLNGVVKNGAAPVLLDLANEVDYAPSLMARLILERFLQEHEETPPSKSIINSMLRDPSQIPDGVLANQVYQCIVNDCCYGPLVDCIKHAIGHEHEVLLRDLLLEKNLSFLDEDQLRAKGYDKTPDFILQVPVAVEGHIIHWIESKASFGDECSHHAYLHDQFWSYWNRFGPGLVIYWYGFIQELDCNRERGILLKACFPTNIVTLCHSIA
UniProt Q8NCP5: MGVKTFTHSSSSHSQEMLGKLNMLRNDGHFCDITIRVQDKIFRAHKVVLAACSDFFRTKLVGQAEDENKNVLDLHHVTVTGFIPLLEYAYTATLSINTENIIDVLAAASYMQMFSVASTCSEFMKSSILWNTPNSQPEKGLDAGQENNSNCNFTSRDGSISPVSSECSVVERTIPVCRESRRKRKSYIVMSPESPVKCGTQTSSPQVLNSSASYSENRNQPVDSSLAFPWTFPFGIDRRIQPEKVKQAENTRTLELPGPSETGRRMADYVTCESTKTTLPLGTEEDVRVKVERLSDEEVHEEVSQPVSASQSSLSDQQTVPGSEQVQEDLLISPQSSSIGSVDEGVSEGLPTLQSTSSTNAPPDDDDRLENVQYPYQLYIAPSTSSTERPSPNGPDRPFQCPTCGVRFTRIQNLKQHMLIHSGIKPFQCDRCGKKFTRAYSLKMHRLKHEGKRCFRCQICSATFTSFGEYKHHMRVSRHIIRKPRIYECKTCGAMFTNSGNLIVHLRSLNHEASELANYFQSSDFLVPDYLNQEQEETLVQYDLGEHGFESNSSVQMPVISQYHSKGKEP

Target | NP40-soluble protein abundance (concentration: 1mM) | NP40-soluble protein abundance (concentration: 2mM) | NP40-soluble protein abundance (concentration: 4mM) | NP40-soluble protein abundance (concentration: 6mM) | NP40-soluble protein abundance (concentration: 8mM) | NP40-soluble protein abundance (concentration: 10mM)
H0Y612 and related entries (UniProt Q9UPN9) | 0.999 ± 0.026 | 1.01 ± 0.037 | 0.999 ± 0.031 | 1.03 ± 0.049 | 1.01 ± 0.022 | 1.03 ± 0.023
J3KP92 and related entries (UniProt Q86Z02) | 0.924 ± 0.14 | 0.979 ± 0.06 | 0.975 ± 0.13 | 0.933 ± 0.093 | 1.04 ± 0.12 | 1.04 ± 0.068
M0QY01 and related entries (UniProt Q9UBC2) | 0.932 ± 0.032 | 0.9579 ± 0.0066 | 0.932 ± 0.0096 | 0.964 ± 0.022 | 0.919 ± 0.019 | 0.922 ± 0.033
J3QK89 and related entries (UniProt Q8IWX8) | 1.1 ± 0.084 | 1.13 ± 0.081 | 1.16 ± 0.075 | 1.28 ± 0.17 | 1.24 ± 0.049 | 1.26 ± 0.077
K7ERT1 and related entries (UniProt O00273) | 0.987 ± 0.053 | 0.98 ± 0.026 | 0.981 ± 0.014 | 1.02 ± 0.018 | 0.955 ± 0.016 | 0.951 ± 0.012
SLC35A4 (UniProt L0R6Q1) | 0.836 ± 0.08 | 0.839 ± 0.066 | 0.816 ± 0.082 | 0.847 ± 0.072 | 0.829 ± 0.051 | 0.779 ± 0.11
K4DI93 and related entries (UniProt Q13620) | 0.994 ± 0.075 | 0.974 ± 0.058 | 0.94 ± 0.049 | 0.905 ± 0.079 | 0.953 ± 0.017 | 0.945 ± 0.043
H3BSM7 and related entries (UniProt Q96GQ5) | 0.998 ± 0.051 | 1 ± 0.073 | 0.997 ± 0.015 | 0.959 ± 0.07 | 1.01 ± 0.069 | 1.02 ± 0.085
H3BP20 and related entries (UniProt P06865) | 0.975 ± 0.072 | 0.979 ± 0.052 | 0.946 ± 0.05 | 0.899 ± 0.11 | 0.945 ± 0.041 | 0.964 ± 0.053
H3BNX8 and related entries (UniProt P20674) | 0.985 ± 0.023 | 0.977 ± 0.055 | 0.978 ± 0.038 | 0.994 ± 0.092 | 1.01 ± 0.04 | 0.946 ± 0.13
J3KNQ1 and related entries (UniProt Q6P2D0) | 0.988 ± 0.073 | 0.999 ± 0.098 | 1.01 ± 0.088 | 1 ± 0.15 | 0.914 ± 0.033 | 1 ± 0.14
K7EK00 and related entries (UniProt Q96ND0) | 0.901 ± 0.042 | 0.923 ± 0.026 | 0.873 ± 0.034 | 0.917 ± 0.032 | 0.855 ± 0.024 | 0.907 ± 0.036
H3BTA2 and related entries (UniProt P60510) | 0.99 ± 0.081 | 0.978 ± 0.077 | 0.976 ± 0.056 | 0.965 ± 0.076 | 1.05 ± 0.055 | 1.01 ± 0.021
H3BNF9 and related entries (UniProt Q9Y2V0) | 0.916 ± 0.014 | 0.962 ± 0.085 | 0.935 ± 0.022 | 0.9479 ± 0.0044 | 0.946 ± 0.037 | 0.9143 ± 0.0013
H0YEM9 (UniProt Q8NCP5) | 1.11 ± 0.091 | 1.204 ± 0.0018 | 1.2 ± 0.095 | 1.25 ± 0.033 | 1.19 ± 0.036 | 1.32 ± 0.025

Looked up one by one from the entries so far, two records:
Target | NP40-soluble protein abundance (concentration: 1mM) | NP40-soluble protein abundance (concentration: 2mM) | NP40-soluble protein abundance (concentration: 4mM) | NP40-soluble protein abundance (concentration: 6mM) | NP40-soluble protein abundance (concentration: 8mM) | NP40-soluble protein abundance (concentration: 10mM)
H3BP20 and related entries (UniProt P06865) | 0.975 ± 0.072 | 0.979 ± 0.052 | 0.946 ± 0.05 | 0.899 ± 0.11 | 0.945 ± 0.041 | 0.964 ± 0.053
J3KNQ1 and related entries (UniProt Q6P2D0) | 0.988 ± 0.073 | 0.999 ± 0.098 | 1.01 ± 0.088 | 1 ± 0.15 | 0.914 ± 0.033 | 1 ± 0.14

— the supplement of paper PMC6411743
